Here are results for 35 targets from the supplement of paper PMC6411743.

Amino acid sequences for entries named in this document (tags omitted). A change or cut given only in a name is not applied to a line headed by its entry.
UniProt Q9BSH5: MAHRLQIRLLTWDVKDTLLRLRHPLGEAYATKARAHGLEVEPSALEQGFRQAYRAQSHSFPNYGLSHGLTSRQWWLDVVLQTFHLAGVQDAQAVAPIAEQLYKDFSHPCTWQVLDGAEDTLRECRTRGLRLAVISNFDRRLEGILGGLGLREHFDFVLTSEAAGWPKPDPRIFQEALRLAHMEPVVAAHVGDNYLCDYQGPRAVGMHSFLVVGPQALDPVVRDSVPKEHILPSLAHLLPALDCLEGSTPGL
UniProt Q9BRA0: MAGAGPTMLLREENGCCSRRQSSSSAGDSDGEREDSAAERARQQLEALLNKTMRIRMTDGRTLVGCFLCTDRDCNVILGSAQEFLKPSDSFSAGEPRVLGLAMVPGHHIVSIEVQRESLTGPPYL
UniProt Q9BWS9: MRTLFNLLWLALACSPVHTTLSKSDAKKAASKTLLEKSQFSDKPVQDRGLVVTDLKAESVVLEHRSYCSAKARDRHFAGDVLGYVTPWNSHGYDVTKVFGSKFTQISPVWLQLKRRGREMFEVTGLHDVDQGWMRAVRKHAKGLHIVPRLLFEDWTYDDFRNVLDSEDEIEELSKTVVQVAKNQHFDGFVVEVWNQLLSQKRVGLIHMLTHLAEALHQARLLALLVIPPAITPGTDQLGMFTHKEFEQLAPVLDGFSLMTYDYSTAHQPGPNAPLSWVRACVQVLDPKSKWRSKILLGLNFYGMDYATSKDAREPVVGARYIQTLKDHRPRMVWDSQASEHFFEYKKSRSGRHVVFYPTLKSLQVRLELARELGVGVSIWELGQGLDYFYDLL
UniProt Q9BQ24: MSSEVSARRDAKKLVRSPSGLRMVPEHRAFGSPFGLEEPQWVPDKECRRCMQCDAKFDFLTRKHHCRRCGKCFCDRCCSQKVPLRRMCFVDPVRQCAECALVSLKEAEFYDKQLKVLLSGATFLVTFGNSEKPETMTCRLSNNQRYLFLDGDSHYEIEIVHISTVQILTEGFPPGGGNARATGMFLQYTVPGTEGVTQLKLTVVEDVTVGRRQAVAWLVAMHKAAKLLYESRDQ
UniProt Q9BPW8: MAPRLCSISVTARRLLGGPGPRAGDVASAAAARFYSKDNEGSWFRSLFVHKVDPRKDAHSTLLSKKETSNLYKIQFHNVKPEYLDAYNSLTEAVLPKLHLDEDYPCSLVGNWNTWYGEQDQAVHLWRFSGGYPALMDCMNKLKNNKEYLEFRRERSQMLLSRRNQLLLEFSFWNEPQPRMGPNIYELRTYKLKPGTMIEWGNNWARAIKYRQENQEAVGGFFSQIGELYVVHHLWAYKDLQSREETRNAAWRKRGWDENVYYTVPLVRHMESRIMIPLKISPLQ
UniProt Q9BYT8, whole entry, looked up: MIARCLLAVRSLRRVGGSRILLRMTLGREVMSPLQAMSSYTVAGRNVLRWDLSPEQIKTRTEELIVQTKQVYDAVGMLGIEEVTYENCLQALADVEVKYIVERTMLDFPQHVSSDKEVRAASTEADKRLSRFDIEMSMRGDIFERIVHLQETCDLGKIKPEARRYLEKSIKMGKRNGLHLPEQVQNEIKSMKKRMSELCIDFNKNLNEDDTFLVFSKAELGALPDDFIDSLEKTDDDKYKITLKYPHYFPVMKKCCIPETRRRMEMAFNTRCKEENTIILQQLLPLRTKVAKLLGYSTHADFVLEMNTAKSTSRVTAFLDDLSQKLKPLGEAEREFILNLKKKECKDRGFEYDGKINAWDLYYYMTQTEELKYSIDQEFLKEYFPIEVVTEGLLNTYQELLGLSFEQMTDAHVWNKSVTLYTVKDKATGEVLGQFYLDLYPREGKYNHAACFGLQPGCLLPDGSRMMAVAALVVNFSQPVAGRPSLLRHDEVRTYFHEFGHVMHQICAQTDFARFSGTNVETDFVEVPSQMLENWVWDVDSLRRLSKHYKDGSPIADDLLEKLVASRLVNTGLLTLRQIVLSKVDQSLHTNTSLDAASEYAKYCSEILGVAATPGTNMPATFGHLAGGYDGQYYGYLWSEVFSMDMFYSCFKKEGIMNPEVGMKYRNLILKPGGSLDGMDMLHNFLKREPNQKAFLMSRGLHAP
UniProt Q9BSB4: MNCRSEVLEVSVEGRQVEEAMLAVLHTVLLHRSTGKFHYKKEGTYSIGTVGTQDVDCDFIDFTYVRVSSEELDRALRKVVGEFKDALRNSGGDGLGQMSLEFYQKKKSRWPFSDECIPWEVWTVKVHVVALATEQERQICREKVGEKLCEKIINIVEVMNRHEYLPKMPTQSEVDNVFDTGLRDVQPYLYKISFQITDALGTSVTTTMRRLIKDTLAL
UniProt Q9BQ69: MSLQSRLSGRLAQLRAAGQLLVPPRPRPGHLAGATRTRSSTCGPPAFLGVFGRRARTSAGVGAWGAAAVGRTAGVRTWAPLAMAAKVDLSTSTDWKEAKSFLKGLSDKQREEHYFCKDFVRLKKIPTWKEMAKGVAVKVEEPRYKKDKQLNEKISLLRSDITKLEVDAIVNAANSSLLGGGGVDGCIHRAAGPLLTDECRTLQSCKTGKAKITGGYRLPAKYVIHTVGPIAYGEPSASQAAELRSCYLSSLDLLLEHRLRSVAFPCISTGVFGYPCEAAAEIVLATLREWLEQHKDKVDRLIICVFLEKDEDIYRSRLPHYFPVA
UniProt Q99442: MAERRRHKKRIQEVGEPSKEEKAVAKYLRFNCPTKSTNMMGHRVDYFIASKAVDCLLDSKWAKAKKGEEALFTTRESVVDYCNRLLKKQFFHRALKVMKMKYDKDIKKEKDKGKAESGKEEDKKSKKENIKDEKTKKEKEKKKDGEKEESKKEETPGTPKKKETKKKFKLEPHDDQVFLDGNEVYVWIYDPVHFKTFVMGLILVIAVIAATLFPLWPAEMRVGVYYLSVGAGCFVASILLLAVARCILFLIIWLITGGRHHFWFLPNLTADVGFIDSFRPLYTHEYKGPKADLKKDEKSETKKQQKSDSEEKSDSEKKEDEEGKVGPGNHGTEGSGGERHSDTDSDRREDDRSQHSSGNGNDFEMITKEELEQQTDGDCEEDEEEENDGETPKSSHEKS
UniProt Q9BZ95: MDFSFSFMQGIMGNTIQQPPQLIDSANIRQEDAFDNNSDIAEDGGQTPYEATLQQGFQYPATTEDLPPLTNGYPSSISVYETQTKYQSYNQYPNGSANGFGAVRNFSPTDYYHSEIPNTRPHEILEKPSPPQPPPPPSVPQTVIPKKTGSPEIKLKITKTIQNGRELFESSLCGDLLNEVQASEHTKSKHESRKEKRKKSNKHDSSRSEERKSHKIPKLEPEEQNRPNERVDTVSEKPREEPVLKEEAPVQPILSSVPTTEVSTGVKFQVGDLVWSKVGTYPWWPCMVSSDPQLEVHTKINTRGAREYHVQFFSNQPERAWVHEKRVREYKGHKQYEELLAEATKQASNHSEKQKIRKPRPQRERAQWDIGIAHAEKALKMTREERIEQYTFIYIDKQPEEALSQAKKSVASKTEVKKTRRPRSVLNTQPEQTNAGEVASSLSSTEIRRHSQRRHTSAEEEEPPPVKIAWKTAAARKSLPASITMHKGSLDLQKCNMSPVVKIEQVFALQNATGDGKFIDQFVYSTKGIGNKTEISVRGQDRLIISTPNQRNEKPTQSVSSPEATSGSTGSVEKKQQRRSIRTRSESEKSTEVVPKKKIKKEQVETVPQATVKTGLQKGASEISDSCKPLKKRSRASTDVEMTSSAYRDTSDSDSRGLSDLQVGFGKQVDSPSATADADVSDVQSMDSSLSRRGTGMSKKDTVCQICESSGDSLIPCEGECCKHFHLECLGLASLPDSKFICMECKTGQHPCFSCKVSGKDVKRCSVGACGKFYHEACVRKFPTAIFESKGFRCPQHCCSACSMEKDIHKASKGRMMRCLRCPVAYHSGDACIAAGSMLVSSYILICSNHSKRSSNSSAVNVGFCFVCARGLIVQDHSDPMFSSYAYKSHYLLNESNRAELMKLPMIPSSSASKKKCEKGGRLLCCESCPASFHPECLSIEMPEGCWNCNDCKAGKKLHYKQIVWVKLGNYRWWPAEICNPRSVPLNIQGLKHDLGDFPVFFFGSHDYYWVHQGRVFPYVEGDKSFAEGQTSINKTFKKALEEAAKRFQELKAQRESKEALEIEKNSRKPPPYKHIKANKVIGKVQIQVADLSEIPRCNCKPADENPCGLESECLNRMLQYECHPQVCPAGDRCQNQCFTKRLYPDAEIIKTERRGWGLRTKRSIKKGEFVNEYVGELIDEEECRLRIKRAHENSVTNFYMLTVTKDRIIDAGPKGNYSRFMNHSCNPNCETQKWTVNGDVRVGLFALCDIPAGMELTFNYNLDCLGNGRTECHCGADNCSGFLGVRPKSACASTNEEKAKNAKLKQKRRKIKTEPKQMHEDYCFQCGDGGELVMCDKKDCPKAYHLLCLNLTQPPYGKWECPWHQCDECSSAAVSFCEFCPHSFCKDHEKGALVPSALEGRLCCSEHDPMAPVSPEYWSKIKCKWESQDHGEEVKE
UniProt Q9BZL4: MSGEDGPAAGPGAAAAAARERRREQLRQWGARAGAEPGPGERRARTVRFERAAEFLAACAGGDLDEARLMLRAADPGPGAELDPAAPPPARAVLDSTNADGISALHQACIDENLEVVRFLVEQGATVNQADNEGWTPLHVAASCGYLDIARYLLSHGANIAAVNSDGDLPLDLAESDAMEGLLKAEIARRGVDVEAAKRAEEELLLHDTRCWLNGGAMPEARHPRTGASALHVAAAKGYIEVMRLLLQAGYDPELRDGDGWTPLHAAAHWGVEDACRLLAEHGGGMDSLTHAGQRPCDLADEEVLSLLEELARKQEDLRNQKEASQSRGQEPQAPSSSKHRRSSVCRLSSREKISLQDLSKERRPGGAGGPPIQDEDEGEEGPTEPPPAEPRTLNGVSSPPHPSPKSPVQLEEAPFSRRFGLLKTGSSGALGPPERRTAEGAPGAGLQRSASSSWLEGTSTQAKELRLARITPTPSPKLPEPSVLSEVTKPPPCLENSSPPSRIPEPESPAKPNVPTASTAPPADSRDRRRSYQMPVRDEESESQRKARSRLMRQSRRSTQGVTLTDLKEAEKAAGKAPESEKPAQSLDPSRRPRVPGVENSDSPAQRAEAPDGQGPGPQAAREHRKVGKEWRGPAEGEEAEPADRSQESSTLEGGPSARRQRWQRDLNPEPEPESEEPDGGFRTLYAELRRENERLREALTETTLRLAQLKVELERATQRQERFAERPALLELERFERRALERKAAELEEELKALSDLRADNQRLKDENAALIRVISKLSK
UniProt Q9BT30: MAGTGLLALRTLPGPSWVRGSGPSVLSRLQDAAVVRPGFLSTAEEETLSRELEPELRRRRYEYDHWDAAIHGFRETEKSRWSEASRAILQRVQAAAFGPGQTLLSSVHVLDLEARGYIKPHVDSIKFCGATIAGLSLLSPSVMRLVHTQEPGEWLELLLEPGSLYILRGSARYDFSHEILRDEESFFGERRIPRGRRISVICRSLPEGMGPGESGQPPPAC
UniProt Q9BW27: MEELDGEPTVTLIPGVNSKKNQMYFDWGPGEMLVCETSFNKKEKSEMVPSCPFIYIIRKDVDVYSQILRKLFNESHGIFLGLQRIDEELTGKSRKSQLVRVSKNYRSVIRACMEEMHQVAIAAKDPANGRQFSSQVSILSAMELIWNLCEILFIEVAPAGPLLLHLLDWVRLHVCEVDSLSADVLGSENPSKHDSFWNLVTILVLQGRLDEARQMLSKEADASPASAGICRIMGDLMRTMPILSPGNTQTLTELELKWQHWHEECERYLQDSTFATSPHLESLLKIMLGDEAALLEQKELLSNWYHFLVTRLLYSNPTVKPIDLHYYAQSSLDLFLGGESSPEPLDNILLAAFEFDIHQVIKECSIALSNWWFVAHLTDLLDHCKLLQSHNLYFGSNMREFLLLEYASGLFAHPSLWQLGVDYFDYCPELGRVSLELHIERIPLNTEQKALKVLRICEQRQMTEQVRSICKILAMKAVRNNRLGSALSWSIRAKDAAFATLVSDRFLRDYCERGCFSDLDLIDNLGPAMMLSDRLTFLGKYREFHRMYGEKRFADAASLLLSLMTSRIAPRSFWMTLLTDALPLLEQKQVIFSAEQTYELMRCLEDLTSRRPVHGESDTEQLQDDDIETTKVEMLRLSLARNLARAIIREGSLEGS
UniProt Q9BVP2: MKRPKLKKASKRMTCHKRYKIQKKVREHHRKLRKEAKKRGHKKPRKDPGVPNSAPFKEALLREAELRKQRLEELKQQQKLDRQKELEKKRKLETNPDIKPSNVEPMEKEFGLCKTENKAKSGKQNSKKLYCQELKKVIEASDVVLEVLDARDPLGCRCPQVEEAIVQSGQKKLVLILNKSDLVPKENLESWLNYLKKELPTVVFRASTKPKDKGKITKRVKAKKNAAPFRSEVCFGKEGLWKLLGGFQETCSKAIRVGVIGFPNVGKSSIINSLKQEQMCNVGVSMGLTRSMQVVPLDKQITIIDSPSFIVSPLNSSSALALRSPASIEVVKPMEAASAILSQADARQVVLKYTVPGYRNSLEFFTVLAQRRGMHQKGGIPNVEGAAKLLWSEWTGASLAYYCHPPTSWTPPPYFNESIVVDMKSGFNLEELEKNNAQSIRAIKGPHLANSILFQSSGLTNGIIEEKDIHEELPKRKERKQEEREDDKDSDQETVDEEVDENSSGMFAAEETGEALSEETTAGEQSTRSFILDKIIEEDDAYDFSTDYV

± gives the standard deviation of the averaged measurements. The entries are a selection whose mix differs from that of the whole data set.

Compound in this assay: Nc1ncnc2c1ncn2[C@@H]1O[C@H](COP(=O)(O)OP(=O)(O)OP(=O)(O)O)[C@@H](O)[C@H]1O [adenosine triphosphate]
The assay can be described thus: NP40-soluble protein abundance relative to vehicle (solubility fold change) (ratio); higher = more soluble protein in presence of ATP. Conditions: concentration: 6mM. Put shortly:
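Jurkat crude lysate (Dounce-homogenised) was treated with eight concentrations from 0.1 to 10 mM for 10 min at room temperature, then 3 min at 37 °C. It was solubilised with 0.8% NP40 and benzonase (60 min, 4 °C) and ultracentrifuged, and the supernatant was TMT-labelled for LC-MS/MS. Intensities were vsn-normalised, and the value is the fold change against the NP40-processed vehicle per replicate, from three independent experiments.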
Take HDHD3 (UniProt Q9BSH5): the NP40-soluble protein abundance stood at 0.925 ± 0.088.

For UniProt Q9BRA0 and related entries, the NP40-soluble protein abundance came out at 0.896 ± 0.09.

Consider CARD11 (UniProt Q9BXL7), for which the NP40-soluble protein abundance turned out to be 1.01 ± 0.06.

UniProt Q9BW91 and related entries: the NP40-soluble protein abundance was found to be 1.04 ± 0.069.

Consider UniProt Q9BWS9 and related entries, for which the NP40-soluble protein abundance came to 1 ± 0.13.

On to UniProt Q99549 and related entries, for which the NP40-soluble protein abundance amounted to 1.13 ± 0.033.

Regarding UniProt Q9BQ24 and related entries, the NP40-soluble protein abundance was determined as 0.995 ± 0.13.

For UniProt Q9BRX8 and related entries, the NP40-soluble protein abundance came to 0.907 ± 0.14.

For the target UniProt Q9BPZ7 and related entries, the NP40-soluble protein abundance was found to be 1.04 ± 0.059.

For UniProt Q9BQF6 and related entries, the NP40-soluble protein abundance was 1.17 ± 0.086.

In the case of UniProt Q9BQS8 and related entries, the NP40-soluble protein abundance turned out to be 0.97 ± 0.013.

In the case of PIK3R4 (UniProt Q99570), the NP40-soluble protein abundance was 0.945 ± 0.021.

As for NIPSNAP1 (UniProt Q9BPW8), the NP40-soluble protein abundance was found to be 0.907 ± 0.12.

Turning to NLN (UniProt Q9BYT8), the NP40-soluble protein abundance is 0.971 ± 0.099.

Regarding SIKE1 (UniProt Q9BRV8), the NP40-soluble protein abundance was 0.902 ± 0.094.

As to UniProt Q9BSB4, the NP40-soluble protein abundance was determined as 0.933 ± 0.15.

On to MACROD1 (UniProt Q9BQ69), for which the NP40-soluble protein abundance was 0.902 ± 0.085.

In the case of UniProt Q9BUT1 and related entries, the NP40-soluble protein abundance is 0.914 ± 0.014.

As for FSD1 (UniProt Q9BTV5), the NP40-soluble protein abundance was determined as 1.02 ± 0.093.

Regarding PSMB7 (UniProt Q99436), the NP40-soluble protein abundance was 0.923 ± 0.099.

For SEC62 (UniProt Q99442), the NP40-soluble protein abundance amounted to 0.923 ± 0.032.

On to “UniProt Q9BZ29-4|A0A088AWN3|A0A0A0MRA7|A0A0A0MSY4|Q9BZ29 and related entries”, for which the NP40-soluble protein abundance came out at 1.07 ± 0.24.

For PAIP2 (UniProt Q9BPZ3), the NP40-soluble protein abundance worked out at 0.98 ± 0.04.

On to UniProt Q9BZE9 and related entries, for which the NP40-soluble protein abundance turned out to be 0.936 ± 0.061.

Consider UniProt Q9BWG4 and related entries, for which the NP40-soluble protein abundance was determined as 1.03 ± 0.035.

Take MAK16 (UniProt Q9BXY0): the NP40-soluble protein abundance stood at 1.15 ± 0.13.

As to UniProt Q9BZ95 and related entries, the NP40-soluble protein abundance is 1.36 ± 0.069.

Consider UniProt Q9BZL4 and related entries, for which the NP40-soluble protein abundance was 0.972 ± 0.033.

For the target ALKBH7 (UniProt Q9BT30), the NP40-soluble protein abundance stood at 1.05 ± 0.25.

Turning to NUP85 (UniProt Q9BW27), the NP40-soluble protein abundance turned out to be 0.949 ± 0.13.

Consider CABLES2 (UniProt Q9BTV7), for which the NP40-soluble protein abundance came to 0.947 ± 0.21.

For NABP2 (UniProt Q9BQ15), the NP40-soluble protein abundance stood at 1.13 ± 0.17.

Take UniProt Q9BVP2 and related entries: the NP40-soluble protein abundance is 1.4 ± 0.078.

In the case of UniProt Q99714 and related entries, the NP40-soluble protein abundance came to 0.982 ± 0.031.

For the target SDF2 (UniProt Q99470), the NP40-soluble protein abundance was determined as 0.999 ± 0.036.
